Assay results published in patent US7319086B1, “Method of prophylaxis and treatment and agents useful for same” (priority 1999, dated 2008).
At least one structure is not confirmed: it was looked up by name or label, or the drawing left a doubt.

Test system: rHA2
Assay: directed porphyrin binding: porphyrins linked by carbodiimide to ethylene diamine-coated wells
Parameters: species or system P. gingivalis
Details: propionic acid groups linked to fixed amines, compared with non-derivatized porphyrin; 125 ng/ml rHA2
Protocol: Microtiter wells were coated with 100 mM ethylene diamine (pH 4.7) then incubated with 90 μg/ml hemin, protoporphyrin IX, or hematoporphyrin overnight in 50% dimethyl formamide in the presence (+) or absence (−) of 10 mM carbodiimide. Wells were washed 4 times with water then the amount of porphyrin bound to the wells was determined by absorbance at 414 nm (striped bars). […] Error bars represent standard deviation of absorbance measurements. Diagrams of chemical structures for hemin, protoporphyrin IX, and hematoporphyrin are presented adjacent to corresponding data.
The inventors reasoned, therefore, that blocking access to the acidic region of protoporphyrin molecules would have an effect on rHA2-binding and allow more specific characterization of binding between the HA2 domain and the porphyrin ring. Modifying the ligand binding assay system used above, surfaces were first coated with ethylene diamine to provide fixed, free, primary amines for carbodiimide linkage of carboxylic acid groups.

Row | SMILES | rHA2-binding to carbodiimide-treated porphyrin
1 | CC1=C(CCC(=O)O)c2cc3[nH]c(cc4nc(cc5[nH]c(cc1n2)c(C)c5C(C)O)C(C)=C4C(C)O)c(C)c3CCC(=O)O (centres unmarked) [hematoporphyrin] | almost eliminated
2 | C=CC1=C(C)c2cc3[nH]c(cc4nc(cc5[nH]c(cc1n2)c(C)c5CCC(=O)O)C(CCC(=O)O)=C4C)c(C)c3C=C [protoporphyrin IX] | almost eliminated
